Measurements from the supplement of paper PMC10849652.
The list shows a part of the results.

The chains behind the UniProt entries cited, without tags or fusion partners. Where a name states a change or a piece, a line headed by the entry shows the natural chain unless it says otherwise.
UniProt Q99714: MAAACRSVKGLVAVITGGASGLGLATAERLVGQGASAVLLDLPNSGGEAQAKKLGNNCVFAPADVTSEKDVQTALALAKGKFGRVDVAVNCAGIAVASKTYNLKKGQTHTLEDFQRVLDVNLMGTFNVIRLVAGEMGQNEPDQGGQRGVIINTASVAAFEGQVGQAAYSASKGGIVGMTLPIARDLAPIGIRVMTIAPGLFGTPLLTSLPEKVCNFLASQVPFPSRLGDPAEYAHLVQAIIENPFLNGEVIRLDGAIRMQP
UniProt O75146: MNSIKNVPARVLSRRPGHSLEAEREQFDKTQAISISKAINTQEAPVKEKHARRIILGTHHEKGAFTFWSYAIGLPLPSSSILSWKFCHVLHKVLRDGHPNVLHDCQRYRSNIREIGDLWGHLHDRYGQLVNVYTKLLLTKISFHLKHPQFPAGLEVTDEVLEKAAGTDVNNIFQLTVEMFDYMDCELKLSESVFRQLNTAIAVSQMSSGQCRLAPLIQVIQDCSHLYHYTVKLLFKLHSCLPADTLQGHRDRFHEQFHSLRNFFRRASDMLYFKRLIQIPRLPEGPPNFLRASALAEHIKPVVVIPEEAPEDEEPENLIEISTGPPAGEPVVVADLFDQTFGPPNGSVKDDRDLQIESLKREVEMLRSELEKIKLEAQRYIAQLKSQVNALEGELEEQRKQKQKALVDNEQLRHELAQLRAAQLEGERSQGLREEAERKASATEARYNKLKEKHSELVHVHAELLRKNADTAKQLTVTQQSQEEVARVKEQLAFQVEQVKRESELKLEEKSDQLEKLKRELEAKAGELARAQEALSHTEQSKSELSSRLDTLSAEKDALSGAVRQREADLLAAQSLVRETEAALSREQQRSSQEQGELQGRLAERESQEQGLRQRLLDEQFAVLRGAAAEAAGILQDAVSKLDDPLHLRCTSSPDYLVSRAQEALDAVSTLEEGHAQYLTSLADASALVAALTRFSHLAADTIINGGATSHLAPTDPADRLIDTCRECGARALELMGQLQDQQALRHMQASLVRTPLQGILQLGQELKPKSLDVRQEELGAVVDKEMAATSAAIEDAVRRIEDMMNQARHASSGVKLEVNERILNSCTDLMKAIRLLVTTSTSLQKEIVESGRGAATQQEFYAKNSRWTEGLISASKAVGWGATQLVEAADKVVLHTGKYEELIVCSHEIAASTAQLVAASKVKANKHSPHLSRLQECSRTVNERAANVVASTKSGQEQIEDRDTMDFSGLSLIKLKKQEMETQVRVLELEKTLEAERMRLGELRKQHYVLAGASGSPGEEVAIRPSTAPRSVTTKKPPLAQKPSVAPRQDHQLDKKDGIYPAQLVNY
UniProt P22626: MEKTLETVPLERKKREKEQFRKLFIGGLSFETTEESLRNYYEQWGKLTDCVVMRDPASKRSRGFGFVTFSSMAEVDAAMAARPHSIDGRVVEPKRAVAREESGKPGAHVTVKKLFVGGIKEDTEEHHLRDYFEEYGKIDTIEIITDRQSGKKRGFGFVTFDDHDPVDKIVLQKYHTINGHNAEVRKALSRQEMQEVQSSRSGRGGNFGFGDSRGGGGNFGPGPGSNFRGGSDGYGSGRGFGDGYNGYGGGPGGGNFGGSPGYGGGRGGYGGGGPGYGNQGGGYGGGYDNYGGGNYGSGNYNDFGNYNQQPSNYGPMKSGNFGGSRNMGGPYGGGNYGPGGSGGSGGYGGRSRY
UniProt P56937: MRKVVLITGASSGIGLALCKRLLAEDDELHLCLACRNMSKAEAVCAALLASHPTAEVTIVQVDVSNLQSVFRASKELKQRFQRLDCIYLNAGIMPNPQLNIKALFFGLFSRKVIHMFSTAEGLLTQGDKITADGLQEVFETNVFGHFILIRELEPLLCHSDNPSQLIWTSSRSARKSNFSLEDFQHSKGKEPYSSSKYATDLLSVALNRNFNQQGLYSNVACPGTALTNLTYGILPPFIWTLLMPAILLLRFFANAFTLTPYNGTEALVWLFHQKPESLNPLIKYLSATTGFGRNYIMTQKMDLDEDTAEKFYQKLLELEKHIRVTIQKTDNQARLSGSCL
UniProt P82970: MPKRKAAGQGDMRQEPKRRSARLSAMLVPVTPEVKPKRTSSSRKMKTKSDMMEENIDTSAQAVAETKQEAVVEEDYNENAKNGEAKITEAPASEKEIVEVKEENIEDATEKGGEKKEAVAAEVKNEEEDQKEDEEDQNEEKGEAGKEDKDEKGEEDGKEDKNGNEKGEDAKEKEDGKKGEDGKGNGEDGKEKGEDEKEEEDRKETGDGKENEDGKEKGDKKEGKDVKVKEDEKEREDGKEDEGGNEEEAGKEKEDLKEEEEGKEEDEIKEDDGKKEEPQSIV
UniProt P14866: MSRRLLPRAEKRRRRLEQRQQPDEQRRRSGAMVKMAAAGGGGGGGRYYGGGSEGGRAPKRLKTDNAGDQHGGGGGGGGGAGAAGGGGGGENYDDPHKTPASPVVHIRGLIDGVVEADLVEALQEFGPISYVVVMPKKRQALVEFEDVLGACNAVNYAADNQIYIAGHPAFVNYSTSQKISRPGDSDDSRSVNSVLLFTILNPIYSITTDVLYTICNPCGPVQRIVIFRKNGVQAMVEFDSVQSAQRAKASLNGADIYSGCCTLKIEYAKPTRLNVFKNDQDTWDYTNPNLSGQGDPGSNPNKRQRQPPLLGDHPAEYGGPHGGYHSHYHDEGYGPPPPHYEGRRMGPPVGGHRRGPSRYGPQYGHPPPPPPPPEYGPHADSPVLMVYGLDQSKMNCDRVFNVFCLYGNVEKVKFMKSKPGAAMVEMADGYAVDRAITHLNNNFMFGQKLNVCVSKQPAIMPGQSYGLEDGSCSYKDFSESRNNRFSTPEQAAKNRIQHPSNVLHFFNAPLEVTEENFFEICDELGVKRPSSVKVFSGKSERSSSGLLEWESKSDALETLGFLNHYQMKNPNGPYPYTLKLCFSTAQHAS
UniProt P05114: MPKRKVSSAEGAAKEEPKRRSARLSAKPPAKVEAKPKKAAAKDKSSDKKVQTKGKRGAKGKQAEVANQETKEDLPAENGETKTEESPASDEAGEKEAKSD
UniProt H0YH80: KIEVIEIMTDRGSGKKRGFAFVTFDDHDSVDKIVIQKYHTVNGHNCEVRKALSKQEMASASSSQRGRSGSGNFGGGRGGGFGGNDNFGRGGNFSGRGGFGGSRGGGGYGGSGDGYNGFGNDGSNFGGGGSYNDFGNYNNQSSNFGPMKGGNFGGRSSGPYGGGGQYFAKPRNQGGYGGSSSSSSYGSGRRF
UniProt Q8TCT9: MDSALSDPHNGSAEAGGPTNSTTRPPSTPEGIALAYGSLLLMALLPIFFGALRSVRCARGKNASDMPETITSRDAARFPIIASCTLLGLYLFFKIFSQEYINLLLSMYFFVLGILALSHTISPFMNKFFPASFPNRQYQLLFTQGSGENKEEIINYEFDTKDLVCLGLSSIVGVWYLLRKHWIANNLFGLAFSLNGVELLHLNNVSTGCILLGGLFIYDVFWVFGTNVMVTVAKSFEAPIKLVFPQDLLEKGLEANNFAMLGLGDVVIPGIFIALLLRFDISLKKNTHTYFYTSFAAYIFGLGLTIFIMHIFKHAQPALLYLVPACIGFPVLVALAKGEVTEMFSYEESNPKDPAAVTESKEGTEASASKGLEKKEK
UniProt P52272: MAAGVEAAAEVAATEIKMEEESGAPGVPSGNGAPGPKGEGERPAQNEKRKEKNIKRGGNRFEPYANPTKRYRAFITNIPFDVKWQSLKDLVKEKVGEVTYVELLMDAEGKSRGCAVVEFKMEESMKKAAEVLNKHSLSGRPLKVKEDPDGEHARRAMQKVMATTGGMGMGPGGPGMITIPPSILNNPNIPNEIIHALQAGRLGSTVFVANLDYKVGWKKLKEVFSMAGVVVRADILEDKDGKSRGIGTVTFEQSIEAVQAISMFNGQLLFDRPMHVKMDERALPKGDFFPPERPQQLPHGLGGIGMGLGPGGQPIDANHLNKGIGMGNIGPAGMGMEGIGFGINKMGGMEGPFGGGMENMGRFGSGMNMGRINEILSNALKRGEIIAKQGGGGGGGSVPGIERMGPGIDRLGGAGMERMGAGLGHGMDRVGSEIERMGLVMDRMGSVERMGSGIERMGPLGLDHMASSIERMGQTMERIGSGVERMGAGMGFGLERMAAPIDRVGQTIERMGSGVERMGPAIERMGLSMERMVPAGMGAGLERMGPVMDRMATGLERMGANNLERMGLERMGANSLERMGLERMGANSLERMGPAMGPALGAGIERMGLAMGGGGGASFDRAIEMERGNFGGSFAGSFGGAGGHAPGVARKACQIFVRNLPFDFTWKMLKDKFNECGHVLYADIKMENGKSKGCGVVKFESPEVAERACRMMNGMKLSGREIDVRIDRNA
UniProt Q9P0W2: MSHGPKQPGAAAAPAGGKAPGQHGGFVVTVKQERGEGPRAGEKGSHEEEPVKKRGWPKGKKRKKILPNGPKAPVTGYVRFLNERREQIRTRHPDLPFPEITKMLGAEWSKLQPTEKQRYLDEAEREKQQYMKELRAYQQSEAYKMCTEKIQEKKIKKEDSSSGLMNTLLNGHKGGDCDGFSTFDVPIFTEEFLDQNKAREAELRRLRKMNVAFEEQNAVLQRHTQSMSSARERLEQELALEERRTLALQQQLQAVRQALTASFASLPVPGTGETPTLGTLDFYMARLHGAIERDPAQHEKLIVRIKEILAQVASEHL
UniProt Q0VDF9: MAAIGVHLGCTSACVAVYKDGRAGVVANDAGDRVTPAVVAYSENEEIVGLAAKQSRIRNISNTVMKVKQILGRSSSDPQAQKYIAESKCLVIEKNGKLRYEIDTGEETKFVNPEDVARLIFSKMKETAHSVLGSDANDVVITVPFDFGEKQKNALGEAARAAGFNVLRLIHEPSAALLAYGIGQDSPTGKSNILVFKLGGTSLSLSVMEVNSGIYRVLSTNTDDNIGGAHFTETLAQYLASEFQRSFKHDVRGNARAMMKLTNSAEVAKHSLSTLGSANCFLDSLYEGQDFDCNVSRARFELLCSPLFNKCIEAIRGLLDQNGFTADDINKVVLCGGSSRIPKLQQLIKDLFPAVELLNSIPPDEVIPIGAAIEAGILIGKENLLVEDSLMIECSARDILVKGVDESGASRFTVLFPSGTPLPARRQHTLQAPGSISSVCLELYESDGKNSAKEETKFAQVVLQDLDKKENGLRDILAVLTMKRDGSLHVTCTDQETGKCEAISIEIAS
UniProt Q00613: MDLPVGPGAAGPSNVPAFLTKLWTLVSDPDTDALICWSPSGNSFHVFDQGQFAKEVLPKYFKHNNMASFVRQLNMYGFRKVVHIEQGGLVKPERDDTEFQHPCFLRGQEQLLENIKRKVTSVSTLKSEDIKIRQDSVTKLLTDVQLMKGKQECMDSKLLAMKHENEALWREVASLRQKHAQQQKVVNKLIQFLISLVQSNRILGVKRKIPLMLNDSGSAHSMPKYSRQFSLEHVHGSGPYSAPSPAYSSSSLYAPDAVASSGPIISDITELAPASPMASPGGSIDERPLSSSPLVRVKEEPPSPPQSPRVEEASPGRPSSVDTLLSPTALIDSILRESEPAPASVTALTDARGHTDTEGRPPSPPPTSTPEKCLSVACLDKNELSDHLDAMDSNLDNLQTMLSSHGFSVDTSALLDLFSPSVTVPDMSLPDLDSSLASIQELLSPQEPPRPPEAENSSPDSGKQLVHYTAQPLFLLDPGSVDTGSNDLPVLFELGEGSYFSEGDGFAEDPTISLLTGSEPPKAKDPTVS
UniProt Q9NWT6: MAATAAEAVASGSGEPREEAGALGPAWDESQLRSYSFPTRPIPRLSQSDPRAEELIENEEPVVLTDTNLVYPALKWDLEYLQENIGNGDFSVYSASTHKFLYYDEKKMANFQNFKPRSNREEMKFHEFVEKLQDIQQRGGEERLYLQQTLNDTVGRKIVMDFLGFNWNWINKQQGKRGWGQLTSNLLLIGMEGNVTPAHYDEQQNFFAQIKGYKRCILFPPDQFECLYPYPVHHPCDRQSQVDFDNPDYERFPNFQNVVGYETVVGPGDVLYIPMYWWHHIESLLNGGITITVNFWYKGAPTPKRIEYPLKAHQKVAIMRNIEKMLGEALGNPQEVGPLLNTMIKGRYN
UniProt P00492: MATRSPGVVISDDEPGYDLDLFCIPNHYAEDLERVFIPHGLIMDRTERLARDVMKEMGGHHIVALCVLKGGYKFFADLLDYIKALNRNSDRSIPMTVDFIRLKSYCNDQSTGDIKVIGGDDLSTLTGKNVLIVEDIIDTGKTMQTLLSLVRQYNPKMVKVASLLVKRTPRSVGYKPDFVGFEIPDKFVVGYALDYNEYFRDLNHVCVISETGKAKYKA

Assays:
Assay in all cases: log2 fold change, soluble protein after heating vs DMSO (PISA); higher = thermal stabilisation; K562 cells, 10 uM, 30 min; active = over 0.2 and 3.5 SD of the protein, either way, in both replicates (recomputed)
bafetinib = compound: Cc1ccc(NC(=O)c2ccc(CN3CC[C@H](N(C)C)C3)c(C(F)(F)F)c2)cc1Nc1nccc(-c2cncnc2)n1 [bafetinib]
Summary of the method: (§1)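 Soluble protein was quantified by TMTpro 16plex LC-MS/MS after channel sums were equalised. It was obtained as the supernatant after 21,000xg for 90 min from pooled aliquots of K562 cells (2×10^6 cells/mL, 10 μM compound, 30 min) heated for 3 min across 48°C-58°C and extracted in PBS with 0.5% NP-40 at 4°C. Thermal stability values are relative to control samples and come from duplicates. They are given as log2 fold changes.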

[1] = compound: Cc1cccc(CC(=O)N2CCc3c2ccc(-c2cn(C)c4ncnc(N)c24)c3F)n1
Summary of the method: as §1

nilotinib = compound: Cc1cn(-c2cc(NC(=O)c3ccc(C)c(Nc4nccc(-c5cccnc5)n4)c3)cc(C(F)(F)F)c2)cn1 [nilotinib]
Summary of the method: as §1

[2] = compound: Cc1nc(Nc2n[nH]c3c2CN(C(=O)N[C@H](CN(C)C)c2ccccc2)C3(C)C)c2sccc2n1
Summary of the method: as §1

dasatinib = compound: Cc1nc(Nc2ncc(C(=O)Nc3c(C)cccc3Cl)s2)cc(N2CCN(CCO)CC2)n1 [dasatinib]
Summary of the method: as §1

[3] = compound: Cc1ncc(-c2ccnc(Nc3ccc(S(C)(=O)=O)cc3)n2)n1C(C)C
Summary of the method: as §1

[4] = compound: Cn1cc(-c2ccc3c(c2)CCN3C(=O)Cc2cccc(C(F)(F)F)c2)c2c(N)ncnc21
Summary of the method: as §1

[5] = compound: Cn1cc(-c2ccc3nnc(C(F)(F)c4ccc5ncccc5c4)n3n2)cn1
Summary of the method: as §1

tipifarnib = compound: Cn1cncc1[C@@](N)(c1ccc(Cl)cc1)c1ccc2c(c1)c(-c1cccc(Cl)c1)cc(=O)n2C [tipifarnib]
Summary of the method: as §1

mubritinib = compound: FC(F)(F)c1ccc(/C=C/c2nc(COc3ccc(CCCCn4ccnn4)cc3)co2)cc1 [mubritinib]
Summary of the method: as §1

Measured: log2 fold change

HSD17B10 (UniProt Q99714)
inactive: bafetinib 0.158 | [1] 0.066 | nilotinib -0.014 | [2] -0.008 | dasatinib 0.042 | [3] -0.005 | [4] 0.089 | [5] 0 | tipifarnib -0.051 | mubritinib 0.104

HMGCR isoform 3 (UniProt P04035)
inactive: bafetinib 0.008 | [1] 0.016 | nilotinib -0.241 | [2] 0.015 | dasatinib -0.027 | [3] -0.087 | [4] -0.023 | [5] -0.062 | tipifarnib -0.021 | mubritinib 0.1

HIP1R (UniProt O75146)
inactive: bafetinib -0.021 | [1] 0.043 | nilotinib -0.11 | [2] 0.016 | dasatinib -0.144 | [3] -0.019 | [4] 0.022 | [5] -0.013 | tipifarnib -0.075 | mubritinib 0.036

HNRNPA2B1 (UniProt P22626)
inactive: bafetinib 0.06 | [1] -0.009 | nilotinib -0.027 | [2] 0.068 | dasatinib 0.363 | [3] 0.185 | [4] -0.383 | [5] -0.243 | tipifarnib 0.217 | mubritinib -0.252

HSD17B7 (UniProt P56937)
inactive: bafetinib -0.039 | [1] 0.02 | nilotinib -0.025 | [2] -0.038 | dasatinib -0.064 | [3] 0.013 | [4] 0.021 | [5] -0.008 | tipifarnib -0.066 | mubritinib -0.041

HIST2H2AA3 (UniProt Q6FI13)
inactive: bafetinib 0.149 | [1] -0.139 | nilotinib 0.072 | [2] -0.057 | dasatinib 0.033 | [3] 0.012 | [4] -0.349 | [5] -0.082 | mubritinib -0.054

HSPA8 (UniProt E9PN89)
inactive: bafetinib -0.04 | [1] -0.338 | nilotinib -0.12 | [2] 0.041 | [3] -0.123 | [4] -0.063 | tipifarnib 0.122 | mubritinib 0.004

HMGN5 (UniProt P82970)
inactive: bafetinib -0.026 | [1] -0.026 | nilotinib 0.057 | [2] 0.002 | dasatinib 0.067 | [3] 0.026 | [4] 0.019 | [5] -0.004 | tipifarnib 0 | mubritinib 0.016

HNRNPL (UniProt P14866)
inactive: bafetinib -0.022 | [1] -0.081 | dasatinib 0.158 | [4] -0.178 | [5] -0.017 | tipifarnib 0.189 | mubritinib -0.287

HMGN1 (UniProt P05114)
inactive: bafetinib -0.014 | [1] -0.012 | nilotinib -0.022 | [2] 0.057 | dasatinib 0.146 | [3] 0.019 | [4] -0.022 | [5] -0.048 | tipifarnib 0.066 | mubritinib -0.049

HSP90AA1 isoform 2 (UniProt P07900)
inactive: bafetinib -0.007 | [1] 0.022 | nilotinib 0.058 | [2] 0.017 | dasatinib -0.054 | [3] 0.011 | [4] 0.028 | [5] -0.021 | tipifarnib -0.032 | mubritinib 0.044

HTD2 (UniProt P86397)
inactive: bafetinib 0.074 | [1] -0.16 | [4] -0.125 | tipifarnib -0.077 | mubritinib 0.071

HNRNPA1 (UniProt H0YH80)
inactive: bafetinib 0.209 | [1] 0.017 | nilotinib -0.086 | [2] 0.137 | [3] 0.138 | [4] -0.239 | [5] -0.28 | mubritinib -0.264

HMGN5 (UniProt Q5JSK9)
inactive: bafetinib -0.054 | [1] -0.127 | dasatinib 0.106 | [4] -0.087 | [5] 0.154 | tipifarnib 0.161 | mubritinib 0.105

Pulled one by one from the entries so far (two):
HNRNPA1 (UniProt H0YH80)
inactive: bafetinib 0.209 | [1] 0.017 | nilotinib -0.086 | [2] 0.137 | [3] 0.138 | [4] -0.239 | [5] -0.28 | mubritinib -0.264

HSP90AA1 isoform 2 (UniProt P07900)
inactive: bafetinib -0.007 | [1] 0.022 | nilotinib 0.058 | [2] 0.017 | dasatinib -0.054 | [3] 0.011 | [4] 0.028 | [5] -0.021 | tipifarnib -0.032 | mubritinib 0.044

Going on with the list.

HM13 (UniProt Q8TCT9)
inactive: bafetinib -0.022 | [1] -0.034 | nilotinib -0.029 | [2] -0.002 | [3] -0.005 | [4] 0.086 | [5] 0.054 | tipifarnib 0.008 | mubritinib -0.01

HNRNPM (UniProt P52272)
inactive: bafetinib 0.14 | [1] -0.057 | nilotinib -0.017 | [2] -0.168 | dasatinib 0.022 | [3] -0.027 | [4] -0.221 | [5] -0.122 | tipifarnib 0.064 | mubritinib -0.363

HSP90AB3P (UniProt Q58FF7)
inactive: bafetinib 0.038 | [1] 0.166 | nilotinib 0.052 | [2] -0.095 | dasatinib 0.049 | [3] 0.124 | [4] -0.016 | [5] -0.007 | tipifarnib -0.195 | mubritinib -0.059

HMG20B (UniProt Q9P0W2)
inactive: bafetinib -0.014 | [1] -0.226 | nilotinib -0.064 | [2] -0.179 | [3] -0.198 | [4] 0.065

HSPA14 (UniProt Q0VDF9)
inactive: bafetinib 0.012 | [1] 0.029 | nilotinib -0.138 | [2] -0.071 | dasatinib -0.127 | [3] 0.006 | [4] 0.013 | [5] -0.046 | tipifarnib -0.113 | mubritinib -0.058

HSF1 (UniProt Q00613)
inactive: bafetinib 0.019 | [1] 0.025 | nilotinib -0.103 | [2] -0.109 | dasatinib -0.362 | [3] -0.085 | [4] 0.217 | tipifarnib -0.074 | mubritinib -0.019

IARS2 (UniProt Q9NSE4)
inactive: bafetinib -0.02 | [1] 0.019 | nilotinib 0.025 | [2] -0.008 | dasatinib 0.016 | [3] 0.004 | [4] 0.008 | [5] 0.014 | tipifarnib 0.018 | mubritinib 0.02

HIF1AN (UniProt Q9NWT6)
inactive: bafetinib -0.086 | [1] 0.009 | nilotinib -0.057 | [2] -0.095 | dasatinib 0.007 | [3] 0.043 | [5] -0.023 | tipifarnib 0.118 | mubritinib 0.049

HUWE1 (UniProt Q7Z6Z7)
inactive: bafetinib 0.006 | [1] 0.028 | nilotinib -0.024 | [2] 0.008 | dasatinib -0.036 | [3] -0.014 | [4] -0.002 | [5] -0.015 | tipifarnib -0.081 | mubritinib 0.059

HPRT1 (UniProt P00492)
inactive: bafetinib -0.035 | [1] 0.024 | nilotinib 0.018 | [2] 0.023 | dasatinib 0 | [3] -0.007 | [4] 0.016 | [5] -0.008 | tipifarnib -0.039 | mubritinib 0.011
